From PubChem BioAssay AID504444 (National Center for Advancing Translational Sciences (NCATS), 2011)
“And” between values parts separate entries of the source, which are not always exact repeats. Equal entries are not always repeated. Among all 360,000 compounds or so, about 7,500 (2.1%) were called active. Inconclusive results, whose numbers are uncertain, are shown with a selection of clear calls. The call rests on the fitted dose curve; in most records, active means well fitted inhibition curve with a large enough effect; inconclusive means small, poorly fitted or top-dose-only effect, or effect the other way; inactive means flat fitted curve, though single readings scatter. Where the call is inconclusive, the potency comes from a doubtful curve fit.

assay: Nrf2 qHTS screen for inhibitors; conditions: A549 ARE-Fluc reporter, luciferase luminescence, 18-24 h; activity change, negative = inhibition: at 46 µM (top of the series); further: nearly all actives have a fitted effect of over 60% in size
Method in brief: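 Quantitative HTS in A549 cells stably bearing an antioxidant response element-firefly luciferase construct. Inhibition of Nrf2-driven transcription was scored by luminescence after 18-24 h of compound exposure at 37 °C.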
On the % scale 0 is the no-effect control and ±100 the full control effect; potency means the concentration at half of the fitted maximal effect.

| SMILES | Potency | activity change, negative = inhibition |
| --- | --- | --- |
| Clc1ccc(Cn2cccn2)cn1 | inconclusive: 29.1 µM [activator, single point] | – |
| CCOc1ccc(-c2nc(CSCC(=O)NC3CC3)c(C)o2)cc1 | inconclusive: 25.9 µM [falling, single point] | – |
| COc1ccc(N2CCN(S(=O)(=O)c3ccc(OC)c(-c4noc(C)n4)c3)CC2)cc1 | inconclusive: 29.1 µM [activator, single point] | – |
| c1ccc(-c2nnc(SCc3nc4ccccc4[nH]3)n2Cc2ccco2)cc1 | – | inactive: 4.47% |
| Cc1cc(/C([O-])=C(/C(=S)Nc2ccccc2)[n+]2ccccc2)c(C)n1-c1ccccc1 | inconclusive: 11.6 µM [activator, partial curve] | – |
| CS(=O)(=O)N(Cc1ccc(C(=O)Nc2ccccc2Sc2ccccc2)cc1)c1ccccc1 | inconclusive: 23.1 µM [falling, single point] | – |
| CCc1cccc(NC(=O)c2cnc(SC)nc2-c2ccccc2)c1 | inconclusive: 0.0046 µM [activator, full curve, poor fit] | – |
| O=[N+]([O-])c1cccc(-c2ccc3nnc(SCc4cccnc4)n3n2)c1 | inconclusive: 16.4 µM [falling, partial curve, poor fit] | – |
| Cc1ccc(CONC(=O)c2cccc([N+](=O)[O-])c2)cc1 | – | inactive: 23.1% |
| CCCCn1c(N)c(N(CC(C)C)C(=O)c2cc(Cl)nc3ccccc23)c(=O)[nH]c1=O | inconclusive: 23.1 µM [activator, partial curve, poor fit] | – |
| COc1ccc(/C=C/C(=O)OCC(=O)NCc2ccccc2)cc1OC | – | inactive: 15.8% |
| COc1ccccc1N1CCN(C(=O)Cc2ccc(Cl)cc2)CC1 | inconclusive: 18.4 µM [activator, single point] | – |
| Cc1cc2nc(-c3ccc(OCc4ccc(F)cc4)cc3)cc(C(F)(F)F)n2n1 | – | inactive: 16.5% |
| COC(=O)c1ccc(NC(=O)CC2C(=O)N(c3ccc(F)cc3)C(=O)N2Cc2ccc(OC)cc2)cc1 (stereo not drawn) | inconclusive: 32.6 µM [activator, partial curve, poor fit] | – |
| CCN(C(=O)COC(=O)c1ccc2ccccc2c1)c1c(N)n(Cc2ccccc2)c(=O)[nH]c1=O | active: 23.1 µM | – |
| Cc1ccc(C)c(Cn2c(=O)n(Cc3ccc4c(c3)OCO4)c(=O)c3oc4ccccc4c32)c1 | inconclusive: 11.6 µM [activator, partial curve] | – |
| CC(=O)Nc1ccc(NC(=O)C2CCCN(S(=O)(=O)c3ccc(Cl)cc3)C2)cc1 (stereo not drawn) | – | inactive: 9.54% |
| O=C(N/N=C1/CCc2ccccc21)C1CC1 | inconclusive: 25.9 µM [activator, single point] | – |
| N#Cc1ccc(-c2ccccc2)nc1Sc1ccc(F)cc1 | inconclusive: 0.0517 µM [falling, full curve, poor fit] | – |
| O=C(NCCc1ccc(Cl)cc1)C1CCN(S(=O)(=O)c2cccs2)CC1 | inconclusive: 9.2 µM [falling, partial curve, poor fit] | – |
| Cn1c(N)c(C(=O)CSc2nn(-c3ccc(F)cc3)c(=S)s2)c(=O)n(C)c1=O | inconclusive: 9.2 µM [falling, partial curve, poor fit] | – |

2 entries from above, field by field:
Clc1ccc(Cn2cccn2)cn1
  Potency: inconclusive: 29.1 µM [activator, single point]
Cc1cc2nc(-c3ccc(OCc4ccc(F)cc4)cc3)cc(C(F)(F)F)n2n1
  activity change, negative = inhibition: inactive: 16.5%

Remaining list, next part.

| SMILES | Potency | activity change, negative = inhibition |
| --- | --- | --- |
| O=C(c1c(F)c(F)c(F)c(F)c1F)N1CCN(c2cccc(C(F)(F)F)c2)CC1 | – | inactive: 7.85% |
| COc1ccccc1OCc1nc(C#N)c(N2CCCC2)o1 | inconclusive: 20.6 µM [falling, single point] | – |
| Nc1ccc(C=C2C=Cc3ccccc32)cc1 | inconclusive: 11.6 µM [activator, partial curve, poor fit] | – |
| CCOc1ccccc1NC(=O)C1CCCN(c2c(CC)c(C)nc3ncnn23)C1 (stereo not drawn) | inconclusive: 25.9 µM [falling, single point] | – |
| Cc1cc(C)c2nc(NC(=O)C3CCCO3)sc2c1 (stereo not drawn) | inconclusive: 8.2 µM [activator, partial curve, poor fit] | – |
| O=C(Nc1ccccc1)C1C2CCC3C(CCC21)C3(Cl)Cl (stereo not drawn) | inconclusive: 9.2 µM [falling, partial curve] | – |
| CCOc1ccc(Cc2nnc(SCC(=O)c3ccc(OC)cc3)o2)cc1 | inconclusive: 3.66 µM [falling, partial curve, poor fit] | – |
| N=c1c(C(=O)NCc2ccco2)cc2c(=O)n3ccccc3nc2n1CCc1ccccc1 | – | inactive: -3.12% |
| CC(C)C[C@H](N)c1cn([C@@H](CCCCN)C(=O)N2CCNCC2)nn1 | active: 1.03 µM | – |
| O=C(C1CCCN(S(=O)(=O)c2ccc(Br)s2)C1)N1CCN(c2ccc(F)cc2)CC1 (stereo not drawn) | inconclusive: 29.1 µM [falling, single point] | – |
| CC(/C=N/NC(=O)c1cc(-c2ccc3ccccc3c2)n[nH]1)=C\c1ccco1 | inconclusive: 29.1 µM [activator, single point] | – |
| CSCCC(NS(=O)(=O)c1ccc(C)cc1)C(=O)N1CCN(C(c2ccccc2)c2ccccc2)CC1 (stereo not drawn) | inconclusive: 18.4 µM [falling, partial curve] | – |
| CN(CCc1ccccc1)C(=O)c1ccc(NC(=O)Cc2ccc(NC(=O)C3CCN(C(=O)C4CCCCC4)CC3)cc2)cc1 | inconclusive: 29.1 µM [falling, single point] | – |
| COc1cc(NC(=O)c2cccs2)c(OC)cc1NC(=O)CCC(=O)Nc1ccc2ncccc2c1 | active: 5.8 µM | – |
| O=C(N1CCC(n2nc(-c3ccccc3)oc2=O)CC1)C1(c2ccccc2)CC1 | inconclusive: 18.4 µM [falling, single point] | – |
| O=C(NP(=O)(N1CCCC1)N1CCCC1)C1=C(N2CCOCC2)/C(=C/c2cccc([N+](=O)[O-])c2)CC1 | – | inactive: 2.72% |
| COC(CNC(=O)CN1CCN(Cc2ccccc2F)C1=O)OC | – | inactive: 1.32% |
| COc1ccc2c(c1)CCc1c(C(=O)N(C)c3ccccc3)noc1-2 | inconclusive: 5.8 µM [activator, partial curve, poor fit] | – |
| CC(C)(C)OC(=O)NCCCCCc1nnc(SCc2ccccc2)o1 | inconclusive: 29.1 µM [falling, single point] | – |
| CCC(C(=O)N1CCN(c2ccccc2F)CC1)n1nc(C)c2sc3ccccc3c2c1=O (stereo not drawn) | inconclusive: 32.6 µM [activator, single point] | – |
| O=C/C(=C\Nc1ccccn1)c1nc2ccccc2o1 | inconclusive: 0.058 µM [activator, partial curve, poor fit] | – |

| SMILES | Potency | activity change, negative = inhibition |
| --- | --- | --- |
| COc1ccccc1N1CCN(/N=C\c2ccccc2)CC1 | inconclusive: 16.4 µM [activator, partial curve] | – |
| Cc1ccc(N(C(=O)CCC(=O)Nc2cc(C)on2)C(C(=O)NC2CCCC2)c2ccccc2)cc1 (stereo not drawn) | inconclusive: 32.6 µM [falling, single point] | – |
| CCOC(=O)N1CCc2c(sc3c2c(=O)n(Cc2ccccc2)c(=O)n3Cc2ccccc2F)C1 | inconclusive: 1.64 µM [falling, partial curve] | – |
| COc1cccc(C2C=C(c3ccc(OC)cc3OC)Nc3nnnn32)c1 (stereo not drawn) | active: 18.4 µM | – |
| O=C1/C(=C\c2ccc(Br)o2)SC(=Nc2ccccc2)N1c1ccccc1 | inconclusive: 6.51 µM [falling, full curve] | – |
| Cc1ccc2oc(-c3cc(NC(=O)c4ccc5c(c4)OCCO5)cc(C)c3O)nc2c1 | – | inactive: -6.67% |
| O=C(CCc1nnc2ccc(NCc3ccccc3)nn12)NC1CCCC1 | inconclusive: 29.1 µM [activator, single point] | – |
| CCOC(=O)c1cc(C)n(CC2CCC(C(=O)Nc3ccc(OCC)cc3)CC2)c1C (stereo not drawn) | inconclusive: 16.4 µM [falling, partial curve, poor fit] | – |
| O=C(NCC1CCCO1)C1CCN(C2CCN(Cc3cccs3)CC2)CC1 (stereo not drawn) | inconclusive: 6.51 µM [activator, single point] | – |
| Cn1cc(CCNC(=O)c2ccc3nc(Cc4ccccc4F)oc3c2)cn1 | inconclusive: 1.64 µM [activator, full curve] | – |
| O=[N+]([O-])c1cccnc1Sc1ccc(F)cc1 | – | inactive: -6.89% |
| O=C(Nc1ccccc1F)Nc1cccnc1Cl | inconclusive: 0.326 µM [activator, full curve, poor fit] | – |
| CC(=O)N1c2ccccc2C(=O)C1N1CCN(c2ccc(F)cc2)CC1 (stereo not drawn) | inconclusive: 6.51 µM [activator, partial curve] | – |
| CCOc1ccc(NC(=O)COC(=O)C2CC2C)cc1 (stereo not drawn) | inconclusive: 23.1 µM [activator, single point] | – |
| COc1ccc(NC(=O)c2ccc(CNS(=O)(=O)c3ccc4c(c3)C(C)(C)C(=O)N4C)cc2)cc1 | – | inactive: -10% |
| O=C(O)Cc1sc(Nc2cccc3ccccc23)nc1-c1ccc(F)cc1 | inconclusive: 18.4 µM [falling, single point] | – |
| COc1cc(C(C)=O)ccc1Oc1ncnc2c1cnn2-c1ccccc1 | inconclusive: 11.6 µM [falling, partial curve, poor fit] | – |
| Cc1ccc(C)c(OCCn2cc(/C=C(/C#N)C(=O)NCC3CCCO3)c3ccccc32)c1 (stereo not drawn) | inconclusive: 29.1 µM [falling, single point] | – |
| CCCCN(C)C(=O)C1CCC(CNS(=O)(=O)c2ccc3c(c2)CC(C)N3C(C)=O)CC1 (stereo not drawn) | inconclusive: 23.1 µM [falling, single point] and inconclusive: 29.1 µM [falling, single point] | – |
| COc1ccc(CNC(=O)COC(=O)c2cc3ccccc3o2)cc1 | inconclusive: 1.84 µM [activator, full curve, poor fit] | – |
| O=C(Nc1ccccc1)c1ccccc1NC(=O)c1ccccc1[N+](=O)[O-] | inconclusive: 6.51 µM [falling, full curve, poor fit] | – |
